Consider two molecules from publication PMC7031079, “ATBS1-INTERACTING FACTOR 2 negatively regulates dark- and brassinosteroid-induced leaf senescence through interactions with INDUCER OF CBF EXPRESSION 1” (Journal of Experimental Botany, 2019).

Experiment [1] concerns the target T1, full-length protein of ICE1 (ICE1FL-pGBKT7) (Arabidopsis thaliana) (UniProt Q9LSE2).
T1 sequence: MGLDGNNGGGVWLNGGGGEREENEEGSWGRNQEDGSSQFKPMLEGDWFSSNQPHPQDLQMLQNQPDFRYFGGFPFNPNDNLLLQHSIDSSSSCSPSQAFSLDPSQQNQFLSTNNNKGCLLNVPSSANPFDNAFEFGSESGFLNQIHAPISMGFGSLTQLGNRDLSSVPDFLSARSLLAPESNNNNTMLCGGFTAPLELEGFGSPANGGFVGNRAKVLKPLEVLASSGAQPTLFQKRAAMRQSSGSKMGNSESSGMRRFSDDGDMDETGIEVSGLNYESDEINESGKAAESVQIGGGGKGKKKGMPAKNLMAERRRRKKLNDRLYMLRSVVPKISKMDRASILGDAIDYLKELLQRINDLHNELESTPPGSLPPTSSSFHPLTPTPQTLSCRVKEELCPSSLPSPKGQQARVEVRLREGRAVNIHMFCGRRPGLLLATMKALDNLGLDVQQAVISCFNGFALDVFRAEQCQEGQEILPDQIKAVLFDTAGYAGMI
Description: two-hybrid; pGBKT7 and pGADT7 constructs co-transformed into S. cerevisiae AH109; beta-galactosidase activity with chlorophenol red-beta-D-galactopyranoside as substrate.

In experiment [2] the target is C-terminal-deleted ICE1, myc-fused (ICE1dC-myc) (Arabidopsis thaliana). Description: co-IP; co-infiltrated tobacco (N. benthamiana) leaves; total proteins immunoprecipitated with anti-myc antibody on Protein G magnetic beads; blots with anti-GFP and anti-myc.
Experiment [3] concerns the target N-terminal-deleted ICE1, myc-fused (ICE1dN-myc) (Arabidopsis thaliana). The description is as above.

No constants are given. Whether binding was seen depends on the method and setting. For part of these data: Binding seen in cells or lysates may run through a third protein. For part of these data: Binding can be weak; no strength is given. For part of these data: Tags and fused reporters may be left off the sequences shown.

For the molecule “C-terminal-deleted AIF2 (AIF2dC-pGADT7) (Arabidopsis thaliana) (domain or fragment)”, in experiment [1], the binding entry was “no binding”.

B1: AIF2FL-nYFP (natural protein, Arabidopsis thaliana, UniProt Q9C8Z9 1-221, looked up)
chain: MASLISDIEPPTSTTSDLVRRKKRSSASSAASSRSSASSVSGEIHARWRSEKQQRIYSAKLFQALQQVRLNSSASTSSSPTAQKRGKAVREAADRALAVSARGRTLWSRAILANRIKLKFRKQRRPRATMAIPAMTTVVSSSSNRSRKRRVSVLRLNKKSIPDVNRKVRVLGRLVPGCGKQSVPVILEEATDYIQALEMQVRAMNSLVQLLSSYGSAPPPI
As to B1, the binding entry in experiment [2] was “no binding”; in experiment [3] it was “binds”.
